# Measurements reported in US6056966A, “Method and compositions for treating impotence” (Baker Norton Pharmaceuticals, Inc., priority 1998, dated 2000).
# The name of at least one read-out is uncertain.
# Tested on: guinea pig penis
# Assay: Topical application of nitrates to the penis of guinea pigs (change in penile volume)
# Set-up: species or system male outbred Hartley guinea pigs
# Settings: in vivo
# From the text: Sixteen (16) male outbred Hartley guinea pigs were weighed and placed into treatment groups as follows:
# The animals were placed in dorsal recumbency and held in place by restraints. The penis was extruded from the prepuce. Care was taken to not manipulate the penis. Length and diameter measurements were made using digital calipers. The length measurement was taken from the prepuce to the tip of the glans when the penis was extended. The diameter was taken 0.5 cm proximally from the tip of the glans.
# The appropriate amount of test material was applied with a Wiretrol™ pipette to the base of the exposed penis. When application was complete, a timer was started. Measurements were taken at 0, 1, 2, 5, 10 and 15 minutes after application or until detumescence was observed.
# The same procedure was followed to topically apply a series of various other nitrate and dinitrate compounds (in neat form) to the penis of guinea pigs. A summary of the activity of this series of nitrate compounds is shown in Table 2, with the AUC and peak effect values for each compound compared to 1,5-PDN.
# The same test procedure was followed as in Example 3, but applying a 10% solution of NTG to the penis in varying dosage amounts.
# Twelve (12) male Hartley guinea pigs were placed into treatment groups as follows: […]
structure (smiles),measurement,value
CC(C)CO[N+](=O)[O-] [Isobutyl nitrate],"AUC, % of 1,5-PDN",83%
same,"Peak Effect, % of 1,5-PDN",98%
